Results published in paper PMC6886295, “The iron–sulfur‐containing HypC‐HypD scaffold complex of the [NiFe]‐hydrogenase maturation machinery is an ATPase” (FEBS Open Bio, 2019).
No constants are given. Whether binding was seen depends on the method and setting. Some results given as binding are weak or reduced against the parent protein; the word gives no strength. Tags and fused reporters may be left off the sequences shown.

T1: HybG_(strep) (Escherichia coli) (UniProt P0AAM7)
T1 sequence: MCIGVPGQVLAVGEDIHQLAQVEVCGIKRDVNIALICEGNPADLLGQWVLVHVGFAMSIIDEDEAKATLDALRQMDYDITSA

T2: HypCC2A (Escherichia coli) (UniProt P0AAM3)
T2 sequence: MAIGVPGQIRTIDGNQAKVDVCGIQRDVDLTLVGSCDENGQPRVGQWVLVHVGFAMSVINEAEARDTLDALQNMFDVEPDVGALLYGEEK

T3: HypC_(strep) (Escherichia coli) (UniProt P0AAM3)
T3 sequence: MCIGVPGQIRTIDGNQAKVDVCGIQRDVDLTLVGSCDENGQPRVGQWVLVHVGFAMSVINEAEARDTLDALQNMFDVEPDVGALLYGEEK

B1: HypD (untagged, co-purified with Strep-tagged HypC or HybG) (protein, UniProt P24192 1-373)
chain: MRFVDEYRAPEQVMQLIEHLRERASHLSYTAERPLRIMEVCGGHTHAIFKFGLDQLLPENVEFIHGPGCPVCVLPMGRIDTCVEIASHPEVIFCTFGDAMRVPGKQGSLLQAKARGADVRIVYSPMDALKLAQENPTRKVVFFGLGFETTMPTTAITLQQAKARDVQNFYFFCQHITLIPTLRSLLEQPDNGIDAFLAPGHVSMVIGTDAYNFIASDFHRPLVVAGFEPLDLLQGVVMLVQQKIAAHSKVENQYRRVVPDAGNLLAQQAIADVFCVNGDSEWRGLGVIESSGVHLTPDYQRFDAEAHFRPAPQQVCDDPRARCGEVLTGKCKPHQCPLFGNTCNPQTAFGALMVSSEGACAAWYQYRQQESEA
B2: HypE (protein, UniProt P24193 1-336)
chain: MNNIQLAHGSGGQAMQQLINSLFMEAFANPWLAEQEDQARLDLAQLVAEGDRLAFSTDSYVIDPLFFPGGNIGKLAICGTANDVAVSGAIPRYLSCGFILEEGLPMETLKAVVTSMAETARAAGIAIVTGDTKVVQRGAVDKLFINTAGMGAIPANIHWGAQTLTAGDVLLVSGTLGDHGATILNLREQLGLDGELVSDCAVLTPLIQTLRDIPGVKALRDATRGGVNAVVHEFAAACGCGIELSEAALPVKPAVRGVCELLGLDALNFANEGKLVIAVERNAAEQVLAALHSHPLGKDAALIGEVVERKGVRLAGLYGVKRTLDLPHAEPLPRIC

How the values were obtained:
Assay in all cases: co-purification (Strep-tag affinity purification); Strep-tagged HypC or HybG co-produced with HypD in E. coli BEF314 or MC4100; complexes purified under anaerobic conditions by the Strep-tag as described in ref. 8
[1] = target: T1, HybG_(strep) (Escherichia coli)
[2] = target: T2, HypCC2A (Escherichia coli)
[3] = target: T3, HypC_(strep) (Escherichia coli)

Row | Binder | binding [1] | binding [2] | binding [3]
1 | B1 | binds | binds | binds
2 | B2 | binds | – | binds
